Results are given in words; binding and its absence hold for the method and conditions named. Some binding calls cover weakened binding; strength is not graded here. Where a sequence is shown, tags or fusion partners need not be part of it.

The results in this text go back to patent US20240327460A1, “NORA INHIBITORS AND METHODS OF USE” (priority 2021, published 2024).

This assay concerns the target T1, NorA with a C-terminal myc-tag, expressed in E. coli from pTrcHis2C (Staphylococcus aureus) (UniProt Q5HHX4).
T1 sequence: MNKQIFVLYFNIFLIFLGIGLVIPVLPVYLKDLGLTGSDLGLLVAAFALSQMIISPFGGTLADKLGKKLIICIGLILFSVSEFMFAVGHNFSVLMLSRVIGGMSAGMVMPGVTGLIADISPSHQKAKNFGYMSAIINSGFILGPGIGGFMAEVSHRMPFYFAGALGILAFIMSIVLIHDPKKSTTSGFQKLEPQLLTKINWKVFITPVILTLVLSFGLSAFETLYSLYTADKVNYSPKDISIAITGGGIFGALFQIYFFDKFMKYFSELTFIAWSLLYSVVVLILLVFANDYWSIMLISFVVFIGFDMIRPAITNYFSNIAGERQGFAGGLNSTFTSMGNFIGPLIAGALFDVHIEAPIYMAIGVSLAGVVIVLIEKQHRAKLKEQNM
The assay can be described thus: pull-down of NorA from the membrane fraction of co-expressing E. coli, immunoblot. For orientation: A western blot detects proteins with antibodies after separation by electrophoresis.

B1: Fab36 co-expressed in E. coli from pBAD33, C-terminal Avi-tag on the heavy chain (Fab, V domains shown)
VH: EVQLVESGGGLVQPGGSLRLSCAASGFTFSSSSIHWVRQAPGKGLEWVASISSSSGSTSYADSVKGRFTISADTSKNTAYLQMNSLRAEDTAVYYCARYSRYYYYAWRVGGYWGGLDYWGQGTLVTVSS
VL: DIQMTQSPSSLSASVGDRVTITCRASQSVSSAVAWYQQKPGKAPKLLIYSASSLYSGVPSRFSGSRSGTDFTLTISSLQPEDFATYYCQQSSSSLITFGQGTKVEIKR
As to B1, the binding entry is on record as “binds”.
